Publication PMC7814966
No constants are given. Whether binding was seen depends on the method and setting. In cells and extracts the contact can be indirect. Some binding calls cover weakened binding; strength is not graded here.

Amino acid sequences for entries named in this document (tags omitted).
UniProt G4MYS1: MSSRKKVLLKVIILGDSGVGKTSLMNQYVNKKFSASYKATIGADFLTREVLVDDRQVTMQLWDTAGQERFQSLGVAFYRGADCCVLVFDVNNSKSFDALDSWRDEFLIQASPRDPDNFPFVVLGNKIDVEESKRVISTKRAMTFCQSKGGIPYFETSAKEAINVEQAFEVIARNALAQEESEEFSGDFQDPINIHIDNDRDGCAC

Biological target: GFP-MoYpt7 (Magnaporthe oryzae) (UniProt G4MYS1)
Assay: co-IP

Question: With “MoVps35-FLAG (from UniProt G4N4D6 1-898)” as the substance, how does the binding read?
Answer: The binding was “binds”.
